# In PubChem BioAssay AID493014 (National Center for Advancing Translational Sciences (NCATS), 2011):
# “And” between values parts separate entries of the source, which are not always exact repeats. Identical values can stand only once. Among all 340,000 compounds or so, about 170 (0.05%) were called active. The inconclusive results got no clear call from the source; some entries with a clear call stand among them for comparison. The call rests on the fitted dose curve; in most records, active means well fitted inhibition curve with a large enough effect in the signal ratio, with a control signal flat (not every such curve was filed as active); inconclusive means small, poorly fitted or top-dose-only effect, or effect the other way, or a change in a side signal; inactive means flat fitted curve, though single readings scatter; the % refers to the signal ratio. A potency beside an inconclusive call is a rough fit, not a confirmed value.
# Assay: qHTS Assay to Find Inhibitors of Chronic Active B-Cell Receptor Signaling;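 on activity change, negative = inhibition: plate controls were basal doxycycline-induced cells for no effect and cells given 10 µM MG132 for full effect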
# Conditions: ABC-DLBCL IkBa-CBG/CBR reporter, luminescence ratio (green luciferase fused to IkBa over red control in TMD8 lymphoma cells), 4 h; activity change, negative = inhibition: at 46.1 µM (top of the series)
# Method in brief: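 TMD8 human ABC-DLBCL cells with doxycycline-inducible IκBα–green luciferase fusion and unfused red luciferase, in 0.5% FBS medium; compounds up to 46 uM, 4 h at 37C. Green/red luminescence ratio, filter-overlap corrected, fitted to concentration-response curves.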
# Potency means the concentration at half of the fitted maximal effect.
Structure (SMILES),"activity change, negative = inhibition",Potency
CC(C)CC(c1nnnn1C(C)(C)C)N1CCN(Cc2ccccc2)CC1 (stereo not drawn),inactive,
c1cnc(N2CCN(Cc3c[nH]c4ccccc34)CC2)nc1,inconclusive: 3.45%,
COc1ccc(CN2CCN(Cc3ccccc3F)CC2)c(OC)c1,inactive,
Cc1cccc(C(=O)Nc2onc(C)c2C#N)c1,,"inconclusive: 35.5 µM [falling, single point]"
C=CCn1c(O)c(N=Nc2ccccc2)c2ccccc21,inconclusive: 5.22%,
CCOc1cc2c3c(c1)C(C)=CC(C)(C)N3C(=O)C2=O,inconclusive: 2.43%,
COc1ccc(NC(=O)COC(=O)[C@@H]2CCCN2S(=O)(=O)c2ccccc2F)c(OC)c1,inconclusive: 8.54%,
Cc1cc(-c2nc3ccccc3[nH]2)ccc1N,,"inconclusive: 31.6 µM [falling, single point]"
CCc1ccc(C2=CC(c3cccc(Br)c3)n3nnnc3N2)cc1 (stereo not drawn),inactive,
Fc1ccc(CSc2nc3ccccc3[nH]2)cc1,,"inconclusive: 0.517 µM [rising, full curve, poor fit]"
Cc1c(NC2=C(Cl)C(=O)N(c3ccccc3)C2=O)c(=O)n(-c2ccccc2)n1C,inconclusive: -7.56%,
Cc1ccc(N(C(=O)c2ccccn2)C2(C(=O)NC3CCCC3)CCCCC2)cc1,inconclusive: 15.8%,
Nc1nc2c(c(=O)[nH]1)C(c1cccc3ccccc13)C1=C(N2)c2ccccc2C1=O (stereo not drawn),,"inconclusive: 2.82 µM [rising, full curve, poor fit]"
CCn1cc(Cl)c(C(=O)Nc2ccccc2C(N)=O)n1,inconclusive: 2.53%,
Cc1[nH]oc(=O)c1N=Nc1c(Cl)cccc1Cl,inconclusive: 12.3%,
CN1N=C2c3ccccc3CCC2C1c1ccc(Cl)cc1 (stereo not drawn),inconclusive: 13.6%,
COC(=O)c1cccc(Nc2c3c(nc4ccccc24)CCC3)c1,inactive,
Cc1cc2c3c([nH]c2cc1S(=O)(=O)NCCCOC(C)C)CC(C)(C)CC3=O,inactive,
COc1ccc(-c2cc3ncnc(Cl)c3s2)cc1,,"inconclusive: 31.6 µM [falling, single point]"
COc1cccc(CNCCc2c[nH]c3ccccc23)c1OCc1ccccc1,inconclusive: -19%,
Cc1ccc(-c2nnc(Sc3nc4ccccc4o3)c3ccccc23)cc1,,"inconclusive: 3.55 µM [falling, partial curve, poor fit]"

Structure (SMILES),"activity change, negative = inhibition",Potency
O=C(CSC1=Nc2ccccc2C2=NC(CC(=O)NC3CCCCC3)C(=O)N12)NCc1ccco1 (stereo not drawn),inconclusive: -8.32%,
COC(=O)C(Cc1c[nH]c2ccccc12)NC(=O)c1ccc2nc[nH]c2c1 (stereo not drawn),inactive,
CC(C)c1ccc(NC2=CC(=O)CC(C)(C)C2)cc1,inconclusive: 10.3%,
N#CC(c1ccc(Cl)cc1)c1ccc(Cl)nn1 (stereo not drawn),inconclusive: 5.91%,
CN(C(=O)c1cc2ccccc2cc1O)C1CCCCC1,inconclusive: 2.62%,
COc1ccc(Cc2nnc(Nc3ccc(C)cc3C)[nH]c2=O)cc1,inactive,
CSc1cccc(NC(=O)Nc2ccccc2)c1,inconclusive: 1.2%,
C=CCNC(=O)/C=C/c1ccc(C(C)C)cc1,inconclusive: 8.52%,
O=C(Cn1nc(C(F)F)cc1C(F)F)NNC(=S)Nc1ccc(F)cc1,inactive,
O=C(N/N=C/c1cccc([N+](=O)[O-])c1)C1CC1c1ccccc1 (stereo not drawn),inconclusive: -1.2%,
CCN(CC(=O)Nc1ccc(NC(C)=O)cc1)C(=O)CCCOc1ccc(C(C)(C)C)cc1,,"inconclusive: 29.1 µM [falling, single point]"
CCCS(=O)(=O)NCCc1cc2c(C)ccc(C)c2[nH]c1=O,inactive,
O=S(=O)(NCCc1cn2ccccc2n1)c1ccc2c(c1)OCCO2,inconclusive: 2.88%,
CC1=CN2C(=N)/C(=C/c3ccc(Sc4ccc(C)cc4)o3)C(=O)N=C2S1,inactive,
COCc1cc(SC2CCCCC2)nc(C)n1,inconclusive: 0.869%,
CC(C)=CCc1c(O)c(CC=C(C)C)c2c(c1O)C(=O)CC(c1ccc(O)cc1)O2 (stereo not drawn),,"inconclusive: 8.91 µM [rising, partial curve, poor fit]"
COCCCNc1ncnc2sc3c(c12)CCC(C)C3 (stereo not drawn),inactive,
O=c1oc2ccccc2c(NCc2cccc(F)c2)c1[N+](=O)[O-],,"inconclusive: 18.4 µM [falling, partial curve]"
CN(C)C(=O)CSc1nc2ccc(N3C(=O)c4ccccc4C3=O)cc2s1,inactive,
O=C(O)c1cc(-c2ccco2)nc2ccc(Br)cc12,inconclusive: -10.1% and inconclusive: -9.4%,
O=C(O)COn1c(-c2ccc(Cl)cc2)nc2ccc(Cl)cc21,inconclusive: -15.5%,

Structure (SMILES),"activity change, negative = inhibition",Potency
COC(=O)C(Cc1ccc(OC(=O)c2ccc(Cl)cc2)cc1)N1Cc2ccccc2C1=O (stereo not drawn),inactive,
Cc1ccccc1NS(=O)(=O)c1cccc(C(=O)Nc2cccc(C(=O)O)c2)c1,inconclusive: 5.02%,
O=C(O)c1ccc(-n2cc(C(=O)c3ccccc3O)cn2)cc1,inconclusive: 198%,
CCn1c(N2CCN(CC(=O)c3c(C)n(C)c4ccc(OC)cc34)CC2)nc2c1c(=O)[nH]c(=O)n2C,,"inconclusive: 6.31 µM [falling, single point]"
C/C(CC(=O)Nc1cc(C)ccn1)=N\NC(=O)c1cccc(C)c1,,"inconclusive: 35.5 µM [rising, single point]"
NC(=O)C1CCN(Cc2nc3ccccc3c(=O)[nH]2)CC1,inconclusive: 5.86%,
CCN(C(=O)COC(=O)c1cc(C)n(-c2ccc(F)cc2)c1C)C1CCS(=O)(=O)C1 (stereo not drawn),,"inconclusive: 2.59 µM [falling, partial curve]"
CC1CCC/C(=C\Nc2ccc(C(=O)O)c(O)c2)C1=O (stereo not drawn),,"inconclusive: 28.2 µM [falling, single point]"
COc1ccc(O)c(/C=N/NC(=O)c2ccc(N3CCCC3=O)cc2)c1,inactive,
CCCCn1c(N)c(N(CCOC)C(=O)c2cccc(OCc3ccccc3)c2)c(=O)[nH]c1=O,inconclusive: 15.2%,
CCOC(=O)c1csc(NC(=O)c2ccccc2)n1,,"inconclusive: 29.1 µM [falling, single point]"
COc1ccc(-c2noc(CSc3nnc(Cc4ccccc4)n3-c3ccc(Cl)cc3)n2)cc1,inconclusive: -13.3%,
O=C(Nc1nccs1)c1cc(Cl)nc2ccccc12,inconclusive: 8.47%,
COc1cccc(/C=C2\SC(=S)N(CCCC(=O)N3CCCCC3CCO)C2=O)c1 (stereo not drawn),,"inconclusive: 6.31 µM [rising, full curve]"
COc1cccc(C(=O)O/N=C(\N)c2ccccn2)c1,inconclusive: 415%,
CCN(CC)CCNC(=O)NC1CCCCC1,inconclusive: -3.14%,
O=C(NCc1cccnc1)/C(=C\c1ccc(-c2ccc(Cl)c(Cl)c2)o1)S(=O)(=O)c1ccccc1,inconclusive: 25.8%,
COc1cccc(C2=NOC(C(=O)Nc3cc(C)nn3-c3ccccc3)C2)c1OC (stereo not drawn),inconclusive: 10.4%,
O=C(CSc1nc2ncc(Br)cc2[nH]1)c1cccc([N+](=O)[O-])c1,inconclusive: 9.12%,
Cc1cccc(NC(=S)NC(=O)C2CC2)c1,,"inconclusive: 35.5 µM [falling, single point]"
CC(=O)Oc1ccc(/C=N/NS(=O)(=O)c2ccc(C)cc2)c(OC(C)=O)c1,,"inconclusive: 15.8 µM [falling, partial curve]"

Structure (SMILES),"activity change, negative = inhibition",Potency
COc1ccc2cc3c(N)c(C(=O)NCc4ccco4)sc3nc2c1,,"inconclusive: 1.46 µM [rising, full curve, poor fit]"
COc1ccc(NC(=O)NCCCN2CCCC2=O)cc1,inconclusive: -0.118%,
CCc1ccc(N2CN(CCc3ccccc3)CNC2=S)cc1,inactive,
COc1ccc2[nH]cc(C(O)CN3CCC(C(N)=O)CC3)c2c1 (stereo not drawn),inconclusive: -2.01%,
CCS(=O)(=O)N1Cc2ccccc2CC1C(=O)Nc1nc2ccc(C)cc2s1 (stereo not drawn),inactive,
Cc1ccc(S(=O)(=O)n2nc(OC(=O)c3ccccc3C)cc2N)cc1,,"inconclusive: 28.2 µM [falling, single point]"
CC(C)Cn1c(SCC(=O)N2CCN(C(=O)c3ccco3)CC2)nc2ccccc2c1=O,inactive,
O=C(NCCCO)c1cc([N+](=O)[O-])cc2c1C=Cc1ccccc1O2,inconclusive: 12.2%,
CC(=O)Nc1ccc(S(=O)(=O)NCC2CCC(C(=O)NC(C)c3ccc4c(c3)OCCO4)CC2)cc1 (stereo not drawn),inconclusive: -2.8%,
O=C1OC(Nc2ccc(Br)cc2F)c2ccccc21 (stereo not drawn),inconclusive: 0.792%,
COC(=O)CSc1n[nH]c(-c2ccncc2)n1,inconclusive: -1.34%,
COCCNC(=O)C(=O)NCC(c1ccc2c(c1)OCO2)N1CCN(c2ccc(F)cc2)CC1 (stereo not drawn),inconclusive: -0.608%,
CCCOc1ccc2oc(=O)c3c(c2c1)CCCN3C(=O)CN(C)Cc1ccccc1,inactive,
COc1ccc(C(O)Cc2nc3ccccc3n2C)cc1OC (stereo not drawn),inconclusive: 7.72%,
CC(OC(=O)Cc1c[nH]c2ccccc12)C(=O)N(C)c1ccccc1 (stereo not drawn),inconclusive: -21.8%,
Cc1ccc(-n2c(SCC(=O)NCc3cccs3)nnc2-c2ccoc2C)cc1,inconclusive: 6.56%,
CCc1ccc(OCCCC(=O)Nc2cccc(C(=O)O)c2)cc1,inconclusive: 4.3%,
CCCn1nnc(NC(=O)c2cccnc2Cl)n1,,"inconclusive: 9.2 µM [falling, partial curve, poor fit]"
CCOC(=O)N1CCN(C(=O)c2cc(COc3c(F)cccc3F)on2)CC1,inconclusive: 3.36%,
Cc1ccc(C)c(N(C(=O)c2snc(C(N)=O)c2N)C(C(=O)NCC2CCCO2)c2ccc(C)o2)c1 (stereo not drawn),inactive,
